Results taken from PubChem BioAssay AID504467 (National Center for Advancing Translational Sciences (NCATS), 2011).
About 7,700 (2.3%) of roughly 330,000 compounds were called active. Inconclusive means that the source gave no clear call. Such entries were picked first, then a sample of the others. The call rests on the fitted dose curve; in most records, active means well fitted inhibition curve with a large enough effect; inconclusive means small, poorly fitted or top-dose-only effect, or effect the other way; inactive means flat fitted curve, though single readings scatter. Potencies beside an inconclusive call are fits to weak or partial responses and may not hold up.

assay: qHTS screen for small molecules that inhibit ELG1-dependent DNA repair in human embryonic kidney (HEK293T) cells expressing luciferase-tagged ELG1; conditions: HEK293T ELG1-luciferase reporter, luminescence, 16 h, DNA damage induced by 5-fluorouridine; activity change, negative = inhibition: at 46.1 µM (top of the series); further: nearly all actives have a fitted effect of over 55% in size
Outline: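 In this reporter screen, reduction of luminescence relative to DMSO vehicle indicated activity. Compounds and 5-fluorouridine were added together to 2,000 cells per well, incubated for 16 hr at 37 °C, then developed with ONE-Glo.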
On the % scale 0 is the no-effect control and ±100 the full control effect; potency means the concentration at half of the fitted maximal effect.

| Compound | Potency | activity change, negative = inhibition |
| --- | --- | --- |
| CCOCCN1CCN(c2c(CC)c(C)nc3cc(-c4cc(OC)cc(OC)c4)nn23)CC1 | active: 6.51 µM |  |
| Cc1ccc(NC(=S)NNc2ncc(C(F)(F)F)cc2Cl)c(C)c1 | active: 20.6 µM |  |
| CC(=O)c1cccc(OCc2cc(C(=O)N(C)Cc3cnccn3)no2)c1 | inconclusive: 6.51 µM [activator, single point] |  |
| O=C(c1cc(-c2ccc(F)cc2)on1)N1CCCc2ccccc21 | inconclusive: 3.26 µM [activator, partial curve] |  |
| CC1=CC(C)(C)N(C(=O)CSc2nnc(N)s2)c2cc(C)c(C)cc21 |  | inactive: -4.89% |
| CC(=O)N1c2ccc(S(=O)(=O)N3CCC(C(=O)N4CC(C)CC(C)C4)CC3)cc2CC1C (stereo not given) |  | inactive: -25.1% |
| O=C(CP(=O)(c1ccccc1)c1ccccc1)Nc1cccc(CP(=O)(c2ccccc2)c2ccccc2)c1 | inconclusive: 29.1 µM [inhibitor, single point] |  |
| N#C/C(=C/c1ccc(N2CCOCC2)o1)C(=O)Nc1ccccc1 | inconclusive: 3.66 µM [activator, full curve] |  |
| O=C(O)Cc1ccc(NC(=O)c2ccc3c(c2)C(=O)N(CC2CCCO2)C3=O)cc1 (stereo not given) |  | inactive: -2.24% |
| COC(CNS(=O)(=O)c1cc2c3c(c1)CCN3C(=O)CC2)OC |  | inactive: 9.38% |
| CCOc1ccc(CCNC(=O)C2CCN(S(=O)(=O)N3CCC(C)CC3)CC2)cc1OCC | inconclusive: 4.61 µM [inhibitor, full curve] |  |
| Cc1c(CCOC(=O)c2cc([N+](=O)[O-])cc([N+](=O)[O-])c2)sc[n+]1CC(=O)c1ccccc1 |  | inactive: -0.501% |
| O=C(NC(Nc1cc(C(F)(F)F)ccc1Cl)C(=O)c1ccccc1)c1ccccc1 (stereo not given) |  | inactive: 12.3% |
| CCCCOc1ccc(C(=S)N2CCC(C(N)=O)CC2)cc1 | inconclusive: 18.3 µM [activator, partial curve] |  |
| Oc1oc(-c2ccccc2)nc1C=NCc1ccccc1 | inconclusive: 2.59 µM [activator, single point] |  |
| Cc1ccc(CN(C(=O)COc2ccc(C)c(C)c2)C2CCS(=O)(=O)C2)o1 (stereo not given) |  | inactive: -2.18% |
| COc1ccc(NC(=O)Nc2nnc(C(C)(C)C)s2)cc1 | inconclusive: 18.3 µM [activator, partial curve] |  |
| Cn1c(=O)[nH]c(=O)c2c1nc(N1CCCCC1)n2CCCSc1nnnn1-c1ccccc1 | inconclusive: 32.6 µM [inhibitor, single point] |  |
| CC(=O)Nc1sc(N/N=C\c2ccco2)nc1-c1cccs1 |  | inactive: -1.71% |
| CCN(CC)CCNC(=O)c1ccc2c(c1NCCO)C(=O)c1ccccc1C2=O | active: 13 µM |  |
| CN(CC(=O)Nc1ccc(Cl)cc1)C1=NS(=O)(=O)c2ccccc21 |  | inactive: 10.5% |
| COc1ccc(NS(=O)(=O)c2c(C)cc(C)cc2C)cn1 | inconclusive: 7.3 µM [inhibitor, partial curve, poor fit] |  |
| O=c1[nH]c(-c2ccccn2)nc2sc(-c3ccccc3)cc12 | inconclusive: 4.11 µM [activator, full curve] |  |

| Compound | Potency | activity change, negative = inhibition |
| --- | --- | --- |
| COc1cc(N)ccc1NC(=O)c1cccs1 | inconclusive: 25.9 µM [activator, single point] |  |
| Cc1ccc(-c2csc(NC(=S)NC(=O)c3cc4ccccc4o3)n2)cc1 | inconclusive: 6.51 µM [activator, partial curve, poor fit] |  |
| CCOc1cccc(C(=O)NC(=S)Nc2ccc(N3CCN(CC)CC3)cc2)c1 | inconclusive: 23.1 µM [inhibitor, single point] |  |
| CCn1nc(NC(=O)c2ccco2)c2cc3ccccc3nc21 | inconclusive: 25.9 µM [inhibitor, single point] |  |
| C/C(=N\NC(=S)NC1CCCCC1)c1ccc(O)cc1 | inconclusive: 29.1 µM [inhibitor, single point] |  |
| O=C(NCCn1cc(SCc2ccc(F)cc2)c2ccccc21)c1ccccc1F | inconclusive: 18.4 µM [inhibitor, single point] |  |
| COc1cccc(NC(=O)C2CCN(S(=O)(=O)c3ccc4c(c3)N(C(C)=O)CCO4)CC2)c1 | inconclusive: 10.3 µM [inhibitor, partial curve, poor fit] |  |
| O=C(CSc1nccn(-c2ccc3c(c2)OCCO3)c1=O)Nc1ccccc1 |  | inactive: 12.6% |
| COc1ccc2sc(-c3ccccc3OC)c(-c3ccc4c(c3)OCCO4)c2c1 | inconclusive: 0.517 µM [activator, full curve, poor fit] |  |
| Cn1c(SCC(=O)NCC2CCCO2)ncc(C(=O)Nc2ccccc2)c1=O (stereo not given) | inconclusive: 8.2 µM [activator, partial curve] |  |
| Cc1ccc(C)c(NC(=O)CN2C(=O)COc3ccc(S(=O)(=O)N4CCCC4)cc32)c1 |  | inactive: 9.37% |
| Cc1ccc(SCC(=O)c2cc(C)c(OC(=S)N(C)C)c(C)c2)cc1 | inconclusive: 10.3 µM [activator, partial curve] |  |
| CSCCC(NC(=O)COc1ccccc1)C(=O)N1CCC(C(N)=O)CC1 (stereo not given) |  | inactive: 13.9% |
| CCN(CC)S(=O)(=O)c1cccc(-c2nnc(SCC#N)n2Cc2ccccc2)c1 | inconclusive: 29.1 µM [inhibitor, single point] |  |
| CC(=O)NC(Cc1ccc(C)cc1)C(=O)NC1CCN(S(=O)(=O)c2ccccc2)CC1 (stereo not given) |  | inactive: -3.22% |
| O=C(Nc1ccncc1)c1ccc2ccccc2c1 | inconclusive: 18.3 µM [activator, partial curve] |  |
| O=C(Nc1ccccc1)c1cc([N+](=O)[O-])ccc1N1CCCCC1 | inconclusive: 29.1 µM [inhibitor, single point] |  |
| Cn1c(SCC(=O)NNC(=S)Nc2ccccc2)nnc1-c1ccccc1 | inconclusive: 1.46 µM [activator, partial curve, poor fit] |  |
| CC(=O)Nc1ccc(C(=O)CSc2ncn(-c3ccccc3)n2)cc1 |  | inactive: 8.52% |
| COc1ccc(-c2cc(C(=O)Nc3ccccc3)on2)cc1 | inconclusive: 25.9 µM [activator, single point] |  |
| O=C(Nc1ccc(C2SCCS2)cc1)c1ccccc1 | inconclusive: 5.8 µM [activator, full curve] |  |
| COc1ccccc1CN(C)C(=O)C(NC(=O)Cc1cccc2ccccc12)C(C)C (stereo not given) |  | inactive: -9.95% |

A few values from the results shown.
`O=C(Nc1ccc(C2SCCS2)cc1)c1ccccc1` – Potency: inconclusive: 5.8 µM [activator, full curve]
`O=C(NCCn1cc(SCc2ccc(F)cc2)c2ccccc21)c1ccccc1F` – Potency: inconclusive: 18.4 µM [inhibitor, single point]

Reformatted as labelled records: two of the compounds above
Cc1c(CCOC(=O)c2cc([N+](=O)[O-])cc([N+](=O)[O-])c2)sc[n+]1CC(=O)c1ccccc1
  activity change, negative = inhibition: inactive: -0.501%
O=C(NC(Nc1cc(C(F)(F)F)ccc1Cl)C(=O)c1ccccc1)c1ccccc1 (stereo not given)
  activity change, negative = inhibition: inactive: 12.3%
